Test results published in US10954428B2, “Alkoxyphenyl carboxylic acid tracers” (RESTRACK AS, priority 2015, dated 2021).
Some entries share one result that the patent states for a list of compounds.

Experiment: Thermal stability of tracer candidates up to 150° C. (recovery in reservoir like matrices)
Format: physicochemical
Details: tested for thermal stability up to 150° C.; recovery data in FIG. 2

COc1ccccc1C(=O)O [2-MOBA, 2-methoxybenzoic acid]
thermally stable at least up to (temperature): ≥ 100 °C
